From the supplement of paper PMC6078165
The reference is the same well before dosing, and untreated signal decays as well.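 Labels refer to human fibroblasts, largely primary: uterine (C12385, HUF), lung (H6013), bone (Hs27A), adrenal (HADF), skin (WS1), plus mammary HMF and breast cancer-associated Hs343T. Cancer lines are basal-like or mesenchymal-like triple-negative breast cancer. The paper counts as hits responses shifting over 3x the replicate standard deviation. The tissue of the other fibroblasts is not given here.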

Test system: BT20
Test: relative JC-1 red fluorescence (viability) vs pre-drug, coculture with fibroblast (fraction); higher = more viable cancer cells
Experimental: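 JC-1 labelled TNBC cells cocultured 1:1 (1,500 cells each) with CellTrace Violet stained primary or stromal fibroblasts in 384-well plates in FluoroBrite medium, treated with one of 42 anticancer drugs at 0.1, 1, 10 or 100 uM. JC-1 red fluorescence (mitochondrial integrity in cancer cells only) was read by plate reader every 8 h for 72 h. Values are normalised to each well's pre-drug value. The stock of one drug was tenfold lower, so its dose labels may be too high.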

O=C(O)C(=O)O.[NH-][C@@H]1CCCC[C@H]1[NH-].[Pt+2] [Oxaliplatin]
relative JC-1 red fluorescence
Conditions	8 h	16 h	24 h	32 h	40 h	48 h	56 h	64 h	72 h
10 µM, coculture fibroblast: C12385	0.8852	0.8307	0.787	0.73	0.685	0.657	0.636	0.617	0.596
10 µM, coculture fibroblast: H6013	0.9397	0.8797	0.846	0.813	0.778	0.762	0.765	0.745	0.731
10 µM, coculture fibroblast: H6019	0.876	0.823	0.822	0.785	0.753	0.751	0.739	0.728	0.721
10 µM, coculture fibroblast: H6076	0.959	0.871	0.7997	0.776	0.763	0.745	0.755	0.75	0.731
10 µM, coculture fibroblast: H6231	0.879	0.909	0.823	0.751	0.708	0.67	0.628	0.5908	0.5711
10 µM, coculture fibroblast: HADF	0.9853	0.843	0.799	0.854	0.788	0.735	0.772	0.682	0.67
10 µM, coculture fibroblast: HCFa	0.925	0.86	0.816	0.804	0.795	0.775	0.746	0.733	0.707
10 µM, coculture fibroblast: HCPF	0.85	0.936	0.857	0.807	0.767	0.716	0.673	0.65	0.617
10 µM, coculture fibroblast: HHSteC	0.906	0.8305	0.77	0.688	0.648	0.6112	0.5884	0.5564	0.537
10 µM, coculture fibroblast: HMF	0.7942	0.9127	0.81	0.753	0.708	0.672	0.638	0.61	0.5788
10 µM, coculture fibroblast: HPFa	0.9415	0.856	0.8528	0.775	0.752	0.709	0.701	0.678	0.645
10 µM, coculture fibroblast: HUF	0.883	0.816	0.791	0.718	0.674	0.641	0.619	0.601	0.585
10 µM, coculture fibroblast: Hs5	0.758	0.924	0.864	0.816	0.774	0.749	0.728	0.703	0.681
10 µM, coculture fibroblast: Hs27A	0.854	0.888	0.91	0.906	0.867	0.845	0.837	0.809	0.767
10 µM, coculture fibroblast: Hs343T	0.832	0.9143	0.7874	0.719	0.657	0.613	0.562	0.539	0.5
10 µM, coculture fibroblast: WS1	0.8587	0.784	0.7192	0.652	0.592	0.561	0.531	0.507	0.493
100 µM, coculture fibroblast: C12385	0.927	0.871	0.823	0.781	0.734	0.7	0.658	0.628	0.61
100 µM, coculture fibroblast: H6013	0.947	0.947	0.862	0.904	0.862	0.845	0.854	0.838	0.825
100 µM, coculture fibroblast: H6019	0.8698	0.8006	0.761	0.67	0.604	0.562	0.523	0.492	0.471
100 µM, coculture fibroblast: H6076	0.8958	0.929	0.802	0.752	0.692	0.643	0.6	0.58	0.551
100 µM, coculture fibroblast: H6231	0.753	0.9745	0.826	0.756	0.723	0.671	0.644	0.619	0.5905
100 µM, coculture fibroblast: HADF	0.927	0.907	0.823	0.793	0.742	0.687	0.664	0.653	0.629
100 µM, coculture fibroblast: HCFa	0.934	0.8835	0.855	0.785	0.737	0.69	0.67	0.646	0.608
100 µM, coculture fibroblast: HCPF	0.87	0.912	0.838	0.7749	0.72	0.668	0.629	0.614	0.576
100 µM, coculture fibroblast: HHSteC	0.9341	0.912	0.906	0.834	0.783	0.758	0.742	0.719	0.699
100 µM, coculture fibroblast: HMF	0.842	0.9084	0.7936	0.735	0.667	0.595	0.5403	0.508	0.471
100 µM, coculture fibroblast: HPFa	0.958	0.884	0.877	0.7928	0.751	0.703	0.688	0.664	0.635
100 µM, coculture fibroblast: HUF	0.952	0.886	0.886	0.807	0.75	0.705	0.69	0.674	0.665
100 µM, coculture fibroblast: Hs5	0.912	0.911	0.8286	0.7641	0.7174	0.676	0.6576	0.6296	0.6149
100 µM, coculture fibroblast: Hs27A	0.786	0.844	0.9375	0.932	0.9002	0.883	0.903	0.899	0.865
100 µM, coculture fibroblast: Hs343T	0.963	0.887	0.8074	0.751	0.702	0.646	0.598	0.585	0.561
100 µM, coculture fibroblast: WS1	0.8844	0.787	0.7715	0.7099	0.656	0.6202	0.593	0.559	0.553
